Data on 25 targets can be found in the supplement of paper PMC12819154, “High-throughput peptide-centric local stability assay extends protein–ligand identification to membrane proteins, tissues and bacteria” (Nature Structural & Molecular Biology, 2025).

Chains of the proteins cited; added tags and fusions are not shown. Lines headed by an entry give the natural chain unless they say otherwise; changes in a name come on top.
UniProt Q9BR11: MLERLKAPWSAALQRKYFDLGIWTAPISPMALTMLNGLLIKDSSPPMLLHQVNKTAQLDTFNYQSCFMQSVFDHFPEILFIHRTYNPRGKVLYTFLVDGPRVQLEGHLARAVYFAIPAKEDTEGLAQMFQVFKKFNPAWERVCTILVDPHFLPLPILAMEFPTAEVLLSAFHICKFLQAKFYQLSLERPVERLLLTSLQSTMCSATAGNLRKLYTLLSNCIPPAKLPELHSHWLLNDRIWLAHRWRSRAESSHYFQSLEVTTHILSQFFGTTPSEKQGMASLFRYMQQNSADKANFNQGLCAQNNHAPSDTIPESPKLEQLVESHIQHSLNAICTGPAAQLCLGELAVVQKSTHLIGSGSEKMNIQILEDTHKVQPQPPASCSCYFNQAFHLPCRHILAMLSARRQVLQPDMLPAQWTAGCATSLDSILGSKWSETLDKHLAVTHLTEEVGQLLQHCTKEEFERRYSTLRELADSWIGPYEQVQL
UniProt Q9BR77: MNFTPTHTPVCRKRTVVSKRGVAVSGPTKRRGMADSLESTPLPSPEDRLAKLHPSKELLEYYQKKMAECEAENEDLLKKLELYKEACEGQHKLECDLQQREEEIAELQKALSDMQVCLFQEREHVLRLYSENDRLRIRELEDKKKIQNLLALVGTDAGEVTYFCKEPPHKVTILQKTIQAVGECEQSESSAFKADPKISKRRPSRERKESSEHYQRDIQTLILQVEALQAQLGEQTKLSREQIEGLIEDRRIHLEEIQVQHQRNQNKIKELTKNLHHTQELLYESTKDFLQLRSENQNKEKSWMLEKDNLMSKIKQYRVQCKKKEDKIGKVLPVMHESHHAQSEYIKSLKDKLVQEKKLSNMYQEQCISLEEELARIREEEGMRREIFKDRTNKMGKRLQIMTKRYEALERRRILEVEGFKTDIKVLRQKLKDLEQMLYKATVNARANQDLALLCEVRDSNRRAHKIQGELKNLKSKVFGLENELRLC
UniProt Q9BQY4: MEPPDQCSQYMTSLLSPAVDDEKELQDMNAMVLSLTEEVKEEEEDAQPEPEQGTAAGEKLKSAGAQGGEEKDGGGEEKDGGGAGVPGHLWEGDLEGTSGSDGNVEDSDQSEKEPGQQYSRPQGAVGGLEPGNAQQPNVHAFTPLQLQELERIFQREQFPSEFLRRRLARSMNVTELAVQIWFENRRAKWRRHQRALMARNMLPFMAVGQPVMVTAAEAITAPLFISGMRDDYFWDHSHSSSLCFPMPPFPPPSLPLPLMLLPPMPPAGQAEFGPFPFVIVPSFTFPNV
UniProt Q99816: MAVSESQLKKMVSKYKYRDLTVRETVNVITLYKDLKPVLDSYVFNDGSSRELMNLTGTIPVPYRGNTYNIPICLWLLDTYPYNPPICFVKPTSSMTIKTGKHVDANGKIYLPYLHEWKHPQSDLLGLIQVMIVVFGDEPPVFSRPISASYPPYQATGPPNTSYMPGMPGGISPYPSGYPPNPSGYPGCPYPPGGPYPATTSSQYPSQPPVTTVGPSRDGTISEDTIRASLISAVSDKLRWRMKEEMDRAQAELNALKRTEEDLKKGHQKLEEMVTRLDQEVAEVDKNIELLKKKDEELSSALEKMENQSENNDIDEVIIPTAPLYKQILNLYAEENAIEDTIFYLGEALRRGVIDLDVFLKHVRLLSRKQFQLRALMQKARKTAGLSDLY
UniProt Q99638: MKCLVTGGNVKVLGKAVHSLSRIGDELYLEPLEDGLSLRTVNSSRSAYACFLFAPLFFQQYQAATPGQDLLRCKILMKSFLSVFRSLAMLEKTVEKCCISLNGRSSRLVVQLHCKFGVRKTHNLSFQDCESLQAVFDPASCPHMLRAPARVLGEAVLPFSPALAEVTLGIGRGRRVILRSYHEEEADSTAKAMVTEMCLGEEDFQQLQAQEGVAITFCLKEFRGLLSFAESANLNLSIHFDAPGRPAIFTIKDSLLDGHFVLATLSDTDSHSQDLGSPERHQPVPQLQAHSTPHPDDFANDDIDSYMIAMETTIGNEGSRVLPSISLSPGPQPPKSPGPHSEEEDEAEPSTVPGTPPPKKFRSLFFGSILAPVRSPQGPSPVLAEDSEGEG
UniProt Q99570, whole entry: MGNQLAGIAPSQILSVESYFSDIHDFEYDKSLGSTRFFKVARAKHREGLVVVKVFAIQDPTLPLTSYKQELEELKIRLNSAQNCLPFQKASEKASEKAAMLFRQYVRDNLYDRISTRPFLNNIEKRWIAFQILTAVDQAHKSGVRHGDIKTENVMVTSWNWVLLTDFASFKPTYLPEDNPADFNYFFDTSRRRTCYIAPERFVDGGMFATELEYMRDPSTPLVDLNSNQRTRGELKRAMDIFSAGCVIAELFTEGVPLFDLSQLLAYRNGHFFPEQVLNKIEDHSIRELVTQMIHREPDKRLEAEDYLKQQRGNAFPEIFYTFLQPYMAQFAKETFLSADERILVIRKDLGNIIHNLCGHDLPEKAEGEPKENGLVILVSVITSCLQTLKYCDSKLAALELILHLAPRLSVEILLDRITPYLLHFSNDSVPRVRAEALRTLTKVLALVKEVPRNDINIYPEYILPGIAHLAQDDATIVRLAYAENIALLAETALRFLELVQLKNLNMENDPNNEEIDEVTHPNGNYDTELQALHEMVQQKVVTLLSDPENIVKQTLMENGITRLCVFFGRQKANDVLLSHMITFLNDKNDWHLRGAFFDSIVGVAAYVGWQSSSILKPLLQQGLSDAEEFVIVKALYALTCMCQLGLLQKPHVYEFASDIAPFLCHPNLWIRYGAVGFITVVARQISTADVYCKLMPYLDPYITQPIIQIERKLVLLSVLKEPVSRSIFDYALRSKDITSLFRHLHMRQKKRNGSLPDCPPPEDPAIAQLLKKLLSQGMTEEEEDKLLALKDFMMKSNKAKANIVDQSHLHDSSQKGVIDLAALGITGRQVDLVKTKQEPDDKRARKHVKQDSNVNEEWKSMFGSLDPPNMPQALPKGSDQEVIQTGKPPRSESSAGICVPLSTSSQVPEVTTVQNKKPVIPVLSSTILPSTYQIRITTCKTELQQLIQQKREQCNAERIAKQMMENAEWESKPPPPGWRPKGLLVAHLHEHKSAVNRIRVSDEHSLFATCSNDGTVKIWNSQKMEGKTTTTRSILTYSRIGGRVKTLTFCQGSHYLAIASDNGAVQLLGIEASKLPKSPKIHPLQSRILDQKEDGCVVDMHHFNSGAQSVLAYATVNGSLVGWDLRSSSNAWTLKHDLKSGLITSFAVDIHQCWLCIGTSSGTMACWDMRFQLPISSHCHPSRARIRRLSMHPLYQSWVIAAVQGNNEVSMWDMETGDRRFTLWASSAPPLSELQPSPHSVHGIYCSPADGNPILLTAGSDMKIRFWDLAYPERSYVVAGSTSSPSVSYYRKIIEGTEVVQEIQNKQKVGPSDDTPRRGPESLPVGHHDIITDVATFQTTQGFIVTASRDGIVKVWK
UniProt Q9BUT9: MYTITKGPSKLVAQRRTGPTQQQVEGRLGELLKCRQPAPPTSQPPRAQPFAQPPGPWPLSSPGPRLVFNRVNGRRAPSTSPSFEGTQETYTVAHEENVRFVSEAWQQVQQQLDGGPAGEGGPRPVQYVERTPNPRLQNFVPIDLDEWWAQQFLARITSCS
UniProt Q9BTC8: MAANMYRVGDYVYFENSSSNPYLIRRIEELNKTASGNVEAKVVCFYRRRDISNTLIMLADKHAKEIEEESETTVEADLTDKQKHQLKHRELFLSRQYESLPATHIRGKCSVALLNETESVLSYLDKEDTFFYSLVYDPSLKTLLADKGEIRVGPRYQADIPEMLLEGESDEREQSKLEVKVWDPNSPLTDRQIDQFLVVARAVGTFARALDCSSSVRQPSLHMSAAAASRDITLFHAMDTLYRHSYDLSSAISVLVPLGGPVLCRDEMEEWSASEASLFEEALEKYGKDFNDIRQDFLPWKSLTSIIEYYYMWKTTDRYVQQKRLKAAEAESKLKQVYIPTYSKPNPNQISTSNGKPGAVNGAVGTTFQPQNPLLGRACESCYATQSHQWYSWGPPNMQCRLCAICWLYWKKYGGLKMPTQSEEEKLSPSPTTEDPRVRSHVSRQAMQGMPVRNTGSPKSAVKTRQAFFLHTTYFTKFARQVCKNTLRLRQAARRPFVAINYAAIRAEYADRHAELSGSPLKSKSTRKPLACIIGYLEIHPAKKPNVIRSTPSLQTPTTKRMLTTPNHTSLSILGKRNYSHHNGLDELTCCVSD
UniProt Q9BUL9: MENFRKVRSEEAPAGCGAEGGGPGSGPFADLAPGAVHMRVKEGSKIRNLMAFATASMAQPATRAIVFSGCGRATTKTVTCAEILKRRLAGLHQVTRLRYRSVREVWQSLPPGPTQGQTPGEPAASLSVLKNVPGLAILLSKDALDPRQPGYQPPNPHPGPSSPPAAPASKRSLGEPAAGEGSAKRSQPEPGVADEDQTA
UniProt Q9BSU1: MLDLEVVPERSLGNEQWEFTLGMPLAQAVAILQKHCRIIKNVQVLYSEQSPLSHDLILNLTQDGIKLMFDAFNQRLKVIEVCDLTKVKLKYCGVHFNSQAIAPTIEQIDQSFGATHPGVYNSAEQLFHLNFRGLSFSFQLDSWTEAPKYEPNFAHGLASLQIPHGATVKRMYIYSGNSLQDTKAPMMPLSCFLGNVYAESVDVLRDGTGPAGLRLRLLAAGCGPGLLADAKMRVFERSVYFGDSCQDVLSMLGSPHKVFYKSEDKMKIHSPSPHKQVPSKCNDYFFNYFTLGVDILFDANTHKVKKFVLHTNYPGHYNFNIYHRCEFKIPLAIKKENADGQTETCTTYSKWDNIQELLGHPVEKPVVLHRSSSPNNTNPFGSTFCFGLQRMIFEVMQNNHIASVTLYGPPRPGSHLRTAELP
UniProt Q99828: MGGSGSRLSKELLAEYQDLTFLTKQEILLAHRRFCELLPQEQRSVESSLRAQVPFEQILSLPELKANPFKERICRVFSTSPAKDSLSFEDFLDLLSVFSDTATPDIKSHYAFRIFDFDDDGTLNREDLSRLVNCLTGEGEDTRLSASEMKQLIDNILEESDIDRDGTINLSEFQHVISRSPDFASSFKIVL
UniProt Q99933: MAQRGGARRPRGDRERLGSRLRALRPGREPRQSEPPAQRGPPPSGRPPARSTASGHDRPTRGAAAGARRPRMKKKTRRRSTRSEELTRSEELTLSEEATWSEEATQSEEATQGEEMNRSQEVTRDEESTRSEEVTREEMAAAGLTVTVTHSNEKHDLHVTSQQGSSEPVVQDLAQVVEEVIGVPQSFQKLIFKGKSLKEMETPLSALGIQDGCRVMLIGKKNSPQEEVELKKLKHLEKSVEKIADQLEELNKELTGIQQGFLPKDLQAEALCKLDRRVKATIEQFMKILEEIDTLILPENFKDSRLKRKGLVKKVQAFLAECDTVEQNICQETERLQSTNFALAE
UniProt Q9BQ89: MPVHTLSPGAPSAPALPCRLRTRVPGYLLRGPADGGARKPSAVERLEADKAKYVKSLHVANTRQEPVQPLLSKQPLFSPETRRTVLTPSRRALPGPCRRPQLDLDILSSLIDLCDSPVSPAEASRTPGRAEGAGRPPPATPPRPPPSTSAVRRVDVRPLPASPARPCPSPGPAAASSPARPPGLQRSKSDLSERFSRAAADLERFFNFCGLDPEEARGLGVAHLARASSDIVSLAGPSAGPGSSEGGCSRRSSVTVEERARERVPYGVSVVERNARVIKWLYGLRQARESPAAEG
UniProt Q9BRQ8: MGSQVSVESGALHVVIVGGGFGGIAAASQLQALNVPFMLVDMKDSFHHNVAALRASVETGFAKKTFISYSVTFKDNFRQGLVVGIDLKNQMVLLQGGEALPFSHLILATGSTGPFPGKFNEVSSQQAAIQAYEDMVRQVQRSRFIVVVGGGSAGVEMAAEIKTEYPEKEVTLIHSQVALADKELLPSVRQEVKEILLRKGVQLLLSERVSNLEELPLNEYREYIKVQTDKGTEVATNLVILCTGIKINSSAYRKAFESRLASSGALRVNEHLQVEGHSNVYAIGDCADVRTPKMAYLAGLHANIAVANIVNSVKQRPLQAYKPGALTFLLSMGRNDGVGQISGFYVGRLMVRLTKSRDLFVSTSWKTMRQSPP
UniProt Q9BQE6: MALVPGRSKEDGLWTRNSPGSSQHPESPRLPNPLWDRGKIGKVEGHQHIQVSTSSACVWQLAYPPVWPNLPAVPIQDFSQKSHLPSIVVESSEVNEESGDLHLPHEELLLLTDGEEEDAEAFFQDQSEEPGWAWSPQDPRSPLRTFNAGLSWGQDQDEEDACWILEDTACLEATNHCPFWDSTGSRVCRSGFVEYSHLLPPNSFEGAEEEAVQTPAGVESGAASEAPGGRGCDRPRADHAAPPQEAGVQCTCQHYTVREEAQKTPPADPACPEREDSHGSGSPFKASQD
UniProt Q99942: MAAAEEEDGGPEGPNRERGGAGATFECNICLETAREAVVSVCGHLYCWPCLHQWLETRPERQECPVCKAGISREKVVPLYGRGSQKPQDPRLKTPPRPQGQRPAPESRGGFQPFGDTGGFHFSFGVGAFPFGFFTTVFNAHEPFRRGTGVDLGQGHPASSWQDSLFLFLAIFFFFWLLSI

The list shows a part of the results. Small differences around the control level are noise.

Compound in the test: CN[C@@H]1C[C@H]2O[C@@](C)([C@@H]1OC)n1c3ccccc3c3c4c(c5c6ccccc6n2c5c31)C(=O)NC4 [staurosporine]
Nature of the test: log2 fold change of tryptic peptide abundance, ligand vs vehicle (limited proteolysis) (log2 ratio); higher = more trypsin-susceptible (destabilized). The note with it: ligand concentration: 20 uM; sample: K562 cleared lysate; digestion: 4 min, 22 C (HT-PELSA RT4min, Orbitrap Astral).
For “UniProt Q9BR11 (peptide sequence: DSSPPMLLHQVNK, peptide start residue: 42)”, the log2 fold change was -0.243.
On to “CCDC77 (peptide sequence: NLHHTQELLYESTKDFLQLR, peptide start residue: 274) (UniProt Q9BR77)”, for which the log2 fold change came to 0.712.
The same measure for “RHOXF2 (peptide sequence: EQFPSEFLR, peptide start residue: 156) (UniProt Q9BQY4)”: 0.123.
On to “BUD13 (peptide sequence: EMQKPLAR, peptide start residue: 517) (UniProt Q9BRD0)”, for which the log2 fold change stood at 0.425.
In the case of “NUDT9 (peptide sequence: LYASHSQFIK, peptide start residue: 320) (UniProt Q9BW91)”, the log2 fold change was -0.188.
Regarding “TSG101 (peptide sequence: AQAELNALKR, peptide start residue: 249) (UniProt Q99816)”, the log2 fold change came out at 0.209.
The figure for “RAD9A (peptide sequence: CCISLNGR, peptide start residue: 97) (UniProt Q99638)” is 0.277; for “PIK3R4 (peptide sequence: KIIEGTEVVQEIQNK, peptide start residue: 1293) (UniProt Q99570)” it is 0.545.
Take “UniProt Q9BUT9 (peptide sequence: QPAPPTSQPPR, peptide start residue: 36)”: the log2 fold change is -0.116.
Consider “MTA3 (peptide sequence: QAFFLHTTYFTK, peptide start residue: 466) (UniProt Q9BTC8)”, for which the log2 fold change was -0.159.
As for “MYD88 (peptide sequence: LIPIKYK, peptide start residue: 252) (UniProt Q99836)”, the log2 fold change is 0.301.
As to “RPP25 (peptide sequence: RSLGEPAAGEGSAK, peptide start residue: 171) (UniProt Q9BUL9)”, the log2 fold change was determined as 0.38.
The figure for “DDA1 (peptide sequence: RPSVYLPTR, peptide start residue: 31) (UniProt Q9BW61)” is 0.202; for “C16orf70 (peptide sequence: LKVIEVCDLTK, peptide start residue: 76) (UniProt Q9BSU1)” it is 0.114; for “UniProt Q99590 (peptide sequence: TEELIESPK, peptide start residue: 602)” it is 0.719.
The same measure for “CIB1 (peptide sequence: FCELLPQEQR, peptide start residue: 34) (UniProt Q99828)”: -0.0756; for “BAG1 (peptide sequence: NSPQEEVELK, peptide start residue: 222) (UniProt Q99933)”: 0.407.
The figure for “MPHOSPH6 (peptide sequence: DHANYEEDENGDITPIKAK, peptide start residue: 134) (UniProt Q99547)” is -0.616; for “FAM110A (peptide sequence: GLGVAHLAR, peptide start residue: 218) (UniProt Q9BQ89)” it is 0.324; for “AIFM2 (peptide sequence: SRDLFVSTSWK, peptide start residue: 356) (UniProt Q9BRQ8)” it is 0.266.
Take “UniProt Q9BVL4 (peptide sequence: YAYSKQPEVCR, peptide start residue: 373)”: the log2 fold change was -0.336.
On to “HAUS7 (peptide sequence: QLHFMDQLLDTIR, peptide start residue: 126) (UniProt Q99871)”, for which the log2 fold change came to 0.391.
For “LBHD1 (peptide sequence: LPNPLWDR, peptide start residue: 30) (UniProt Q9BQE6)”, the log2 fold change was -0.263.
The figure for “RNF5 (peptide sequence: QECPVCK, peptide start residue: 62) (UniProt Q99942)” is -0.254; for “GORASP1 (peptide sequence: ANVEKPVKLEVFNMK, peptide start residue: 61) (UniProt Q9BQQ3)” it is -0.0933.
